Data source: PubChem BioAssay AID1259424 (University of Nebraska Medical Center, 2018)
In all, the deposit lists about 14,000 reagents; this is a random part of them. 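Higher correlation or smaller distance means closer resemblance to KSR1 loss; control wells, including KSR1 knockdowns, recur on many plates.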 The record does not give: the time to read-out.

- Screen: 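Rank knockdowns across the genome by resemblance to the KSR1 depletion profile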 (primary screen)
- Cells: human HCT116 colon cancer cells
- Reagents: siRNA pool against human genes, 50 nM
- Read-out: 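Log2 levels of six mRNAs (branched-DNA multiplex), adjusted by two reference genes and the non-targeting median, then scored against the average KSR1 knockdown pattern as Pearson r and euclidean distance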
- Scale: mean correlation with KSR1 profile and KSR1 correlation: higher = expression change more like KSR1 knockdown; mean distance from KSR1 profile: higher = expression change less like KSR1 knockdown

Target gene | PubChem SID | mean correlation with KSR1 profile | mean distance from KSR1 profile | KSR1 correlation, replicate 1 | KSR1 correlation, replicate 2 | KSR1 correlation, replicate 3
ADGRG7 (GeneID 84873) | SID364004172 | 0.403 | 3.04 | 0.691 | 0.328 | -0.895
DAPK2 (GeneID 23604) | SID363998756 | 0.28 | 2.71 | 0.437 | 0.326 | -0.101
PGK2 (GeneID 5232) | SID364004575 | 0.271 | 1.7 | 0.577 | 0.0551 | 0.317
FBLN5 (GeneID 10516) | SID363997149 | -0.453 | 1.89 | -0.104 | -0.466 | -0.635
CLEC5A (GeneID 23601) | SID363998376 | -0.308 | 1.88 | 0.095 | -0.635 | -0.397
GH1 (GeneID 2688) | SID363991838 | -0.572 | 1.76 | -0.275 | -0.625 | -0.766
AUH (GeneID 549) | SID363992920 | -0.384 | 2.1 | -0.449 | -0.322 | -0.466
RPL24 (GeneID 6152) | SID363992269 | -0.549 | 1.96 | -0.711 | -0.472 | -0.319
PCMT1 (GeneID 5110) | SID363996299 | 0.283 | 1.55 | 0.298 | 0.474 | 0.0579
SS18 (GeneID 6760) | SID363996531 | 0.179 | 1.67 | 0.139 | 0.17 | 0.505
SLC7A8 (GeneID 23428) | SID363998168 | -0.131 | 1.23 | -0.408 | 0.0381 | -0.259
PDRG1 (GeneID 81572) | SID364003464 | 0.042 | 2.58 | 0.0957 | -0.0771 | -0.166
H3-3B (GeneID 3021) | SID363996240 | 0.773 | 0.919 | 0.864 | 0.465 | 0.747
RAX2 (GeneID 84839) | SID364004153 | 0.00315 | 3.58 | -0.119 | -0.175 | -0.00223
TMEFF2 (GeneID 23671) | SID363999939 | -0.538 | 2.3 | -0.245 | -0.626 | -0.736
CCHCR1 (GeneID 54535) | SID364001359 | -0.581 | 3.2 | -0.477 | -0.511 | -0.548
RPF2 (GeneID 84154) | SID364003826 | 0.0409 | 2.52 | 0.0261 | -0.0863 | 0.0105
STT3A (GeneID 3703) | SID364004741 | -0.101 | 1.58 | -0.306 | -0.259 | 0.119
RPS6KA5 (GeneID 9252) | SID363995712 | -0.0703 | 2.36 | 0.106 | -0.161 | -0.421
TMEM138 (GeneID 51524) | SID364000123 | -0.0879 | 1.7 | -0.0482 | -0.0188 | 0.121
SRSF11 (GeneID 9295) | SID363995725 | 0.0779 | 2.53 | 0.0629 | -0.0573 | 0.212
BTG1 (GeneID 694) | SID363992952 | 0.592 | 1.68 | 0.674 | 0.77 | 0.346
STK38L (GeneID 23012) | SID363999246 | 0.254 | 2 | 0.595 | 0.133 | -0.0308
SCD (GeneID 6319) | SID363996000 | -0.0614 | 4.37 | -0.102 | -0.00416 | -0.217
TRPM4 (GeneID 54795) | SID364000407 | -0.476 | 1.55 | -0.432 | -0.48 | -0.248
CAMLG (GeneID 819) | SID363992966 | 0.576 | 2.12 | 0.547 | 0.599 | 0.391
PRMT6 (GeneID 55170) | SID364000813 | -0.453 | 5.95 | -0.394 | -0.31 | 0.174
MLF2 (GeneID 8079) | SID363996345 | -0.668 | 1.49 | -0.202 | -0.736 | -0.682
KRT2 (GeneID 3849) | SID363991754 | -0.183 | 1.93 | 0.23 | -0.528 | 0.0926
ZMYM2 (GeneID 7750) | SID363994553 | -0.0299 | 1.76 | -0.00338 | 0.03 | -0.199
EML1 (GeneID 2009) | SID363995416 | 0.235 | 1.88 | -0.014 | -0.00824 | 0.362
FBXW4 (GeneID 6468) | SID364002280 | -0.0845 | 2.43 | -0.331 | 0.0547 | -0.183
C4BPA (GeneID 722) | SID363992012 | -0.488 | 2.05 | -0.705 | -0.162 | -0.545
AFTPH (GeneID 54812) | SID364000424 | 0.745 | 0.891 | 0.761 | 0.734 | 0.762
GCFC2 (GeneID 6936) | SID363994336 | -0.546 | 2.94 | -0.377 | -0.569 | -0.648
STGC3 (retired record) (GeneID 474171) | SID363992303 | -0.534 | 2.11 | -0.738 | -0.582 | -0.23
INSRR (GeneID 3645) | SID363998656 | 0.236 | 1.92 | 0.161 | 0.384 | 0.166
CAMTA1 (GeneID 23261) | SID364005142 | -0.586 | 1.97 | -0.532 | -0.835 | -0.252
RUBCN (GeneID 9711) | SID364005065 | 0.284 | 3.6 | 0.418 | 0.346 | 0.247
PITPNM1 (GeneID 9600) | SID363995857 | -0.216 | 2.67 | -0.242 | 0.187 | -0.277
SUDS3 (GeneID 64426) | SID364002476 | -0.0786 | 2.45 | 0.107 | -0.247 | -0.00222
ULK2 (GeneID 9706) | SID363999031 | -0.234 | 2.31 | 0.272 | -0.211 | -0.559
CEMIP (GeneID 57214) | SID364001183 | -0.26 | 3.25 | -0.237 | -0.283 | -0.126
CMKLR2 (GeneID 2825) | SID363996199 | 0.798 | 0.93 | 0.737 | 0.882 | 0.674
PPDPF (GeneID 79144) | SID364002775 | -0.197 | 2.68 | -0.311 | -0.344 | -0.306
SLC25A24 (GeneID 29957) | SID363998492 | -0.381 | 2.94 | -0.576 | -0.577 | -0.481
PRM3 (GeneID 58531) | SID364002125 | 0.385 | 2.06 | 0.188 | 0.602 | 0.49
GATD3 (GeneID 8209) | SID363995616 | 0.0584 | 1.38 | -0.169 | 0.158 | 0.0821
OPA1 (GeneID 4976) | SID363999574 | -0.277 | 1.82 | -0.33 | -0.353 | -0.0996
ZSCAN26 (GeneID 7741) | SID364004742 | 0.426 | 3.36 | 0.316 | 0.554 | 0.319
DEFB126 (GeneID 81623) | SID364003505 | 0.304 | 3.26 | 0.263 | 0.209 | 0.389
GRIP1 (GeneID 23426) | SID364005341 | 0.31 | 1.32 | 0.459 | 0.0441 | 0.434
ITGBL1 (GeneID 9358) | SID363995747 | 0.25 | 1.14 | 0.292 | 0.111 | 0.122
RAD18 (GeneID 56852) | SID364001522 | -0.653 | 2.08 | -0.726 | -0.641 | -0.605
DLL3 (GeneID 10683) | SID364000278 | 0.481 | 1.56 | 0.557 | 0.454 | 0.376
SYNJ2 (GeneID 8871) | SID363994956 | -0.0312 | 3.11 | -0.0223 | -0.132 | -0.00656
CERS2 (GeneID 29956) | SID363998490 | -0.33 | 2.17 | -0.396 | -0.533 | -0.524
HELZ2 (GeneID 85441) | SID364004374 | -0.448 | 1.21 | -0.114 | -0.605 | -0.358
CIB1 (GeneID 10519) | SID363997197 | -0.297 | 1.87 | -0.248 | -0.242 | -0.476
APBB1IP (GeneID 54518) | SID364001353 | 0.313 | 2.8 | 0.326 | 0.644 | 0.212
MT1L (GeneID 4500) | SID364005022 | -0.946 | 2.07 | -0.525 | -0.916 | -0.709
RGMA (GeneID 56963) | SID364001563 | 0.0919 | 1.39 | -0.273 | 0.468 | 0.121
SALL4 (GeneID 57167) | SID364001695 | 0.148 | 3.99 | -0.0688 | 0.0786 | 0.154

Entries above whose gene name starts with D or d:
Target gene | PubChem SID | mean correlation with KSR1 profile | mean distance from KSR1 profile | KSR1 correlation, replicate 1 | KSR1 correlation, replicate 2 | KSR1 correlation, replicate 3
DAPK2 (GeneID 23604) | SID363998756 | 0.28 | 2.71 | 0.437 | 0.326 | -0.101
DEFB126 (GeneID 81623) | SID364003505 | 0.304 | 3.26 | 0.263 | 0.209 | 0.389
DLL3 (GeneID 10683) | SID364000278 | 0.481 | 1.56 | 0.557 | 0.454 | 0.376
